Results reported in PMC10695388.
No constants are given. Whether binding was seen depends on the method and setting. In cells and extracts the contact can be indirect. Some entries that bind do so weakly or less than the wild type.

Target: T1, Enp1_WKK (W224V, K228E, K231E) (S. cerevisiae) (UniProt P38333)
T1 sequence: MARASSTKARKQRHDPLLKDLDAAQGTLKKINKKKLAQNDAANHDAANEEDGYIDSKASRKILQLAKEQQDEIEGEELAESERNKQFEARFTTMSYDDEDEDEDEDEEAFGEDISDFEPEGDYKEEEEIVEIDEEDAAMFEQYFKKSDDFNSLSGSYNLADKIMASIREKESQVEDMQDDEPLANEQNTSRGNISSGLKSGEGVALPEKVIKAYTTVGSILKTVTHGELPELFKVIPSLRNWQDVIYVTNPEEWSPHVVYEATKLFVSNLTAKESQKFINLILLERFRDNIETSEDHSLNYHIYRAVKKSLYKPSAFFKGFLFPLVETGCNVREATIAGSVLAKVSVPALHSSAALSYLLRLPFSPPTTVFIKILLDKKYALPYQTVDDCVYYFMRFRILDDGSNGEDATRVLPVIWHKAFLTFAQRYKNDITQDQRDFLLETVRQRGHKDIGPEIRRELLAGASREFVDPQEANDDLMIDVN
Test: co-sedimentation; 10-50% sucrose gradient of clarified yeast lysates from cells expressing wt Enp1 or Enp1_WKK; fractions probed by Western blot

binding: binds weakly
B1: Ltv1 (wild type) (protein, UniProt P34078 1-463)
chain: MSKKFSSKNSQRYVVVHRPHDDPSFYDTDASAHVLVPVSNPNKTSPEADLRKKDVSSTKPKGRRAHVGEAALYGINFDDSEYDYTQHLKPIGLDPENSIFIASKGNEQKVEKKNIEDLFIEPKYRRDEIEKDDALPVFQRGMAKPEYLLHQQDTTDEIRGFKPDMNPALREVLEALEDEAYVVNDDVVVEDISKKTQLQGDNYGEEEKEDDIFAQLLGSGEAKDEDEFEDEFDEWDIDNVENFEDENYVKEMAQFDNIENLEDLENIDYQADVRRFQKDNSILEKHNSDDEFSNAGLDSVNPSEEEDVLGELPSIQDKSKTGKKKRKSRQKKGAMSDVSGFSMSSSAIARTETMTVLDDQYDQIINGYENYEEELEEDEEQNYQPFDMSAERSDFESMLDDFLDNYELESGGRKLAKKDKEIERLKEAADEVSKGKLSQRRNRERQEKKKLEKVTNTLSSLKF
